# Values from PubChem BioAssay AID743121 (NCATS, 2013).
# Assay: 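Partners whose loss is lethal together with topoisomerase I blockade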 (primary screen)
# Cells: MDA-MB-231 cells, a human breast cancer line
# Reagent: single siRNA against human genes, 20 nM siRNA (0.8 pmol per well)
# Timing: 120 h (drug added 48 h after transfection, read 72 h later)
# Treatment: camptothecin 20 nM (about EC30) for 72 h; vehicle 0.1% DMSO in parallel plates
# Read-out: 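CellTiter-Glo ATP signal, scaled to control siRNA as percent viability; sensitisation given as log2 of untreated divided by camptothecin-treated viability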
# Reading the numbers: log2 vehicle/camptothecin viability: higher = stronger sensitisation to camptothecin
# Call rule: 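Active genes have an RSA gene-level p-value below 0.001, computed from the ratios of their separate siRNAs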
# Shown is a random part of about 26,000 deposited reagents. Over the whole deposit, 167 (0.63%) were called active. 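Calls are per gene from RSA p-values that are not deposited; an individual active-marked siRNA can sensitise only weakly.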 The numbers tell different reagents against one gene apart. Not all columns of the deposit are shown. No sequences are given here.
Target gene,reagent,log2 vehicle/camptothecin viability,call
SLAMF1,1,0.237,inactive
SLAMF1,2,-0.692,inactive
SLAMF1,3,-0.601,inactive
SLAMF1,4,0.458,inactive
CACNA1B,1,-0.601,inactive
CACNA1B,2,-0.147,inactive
CACNA1B,3,-0.335,inactive
CACNA1B,4,-0.0142,inactive
IL6ST,1,-0.0146,inactive
IL6ST,2,-0.213,inactive
IL6ST,3,-0.12,inactive
IL6ST,4,0.0818,inactive
KCNV2,1,-0.539,inactive
KCNV2,2,-1.96,inactive
KCNV2,3,-0.877,inactive
IFNA13,1,0.232,inactive
IFNA13,2,-0.228,inactive
GNB1L,1,-0.118,inactive
GNB1L,2,-0.0872,inactive
GNB1L,3,0.265,inactive
GNB1L,4,-0.514,inactive

Laid out differently: 8 of the entries above
{"Target gene":"IL6ST","reagent":2,"log2 vehicle/camptothecin viability":-0.213,"call":"inactive"}
{"Target gene":"IL6ST","reagent":3,"log2 vehicle/camptothecin viability":-0.12,"call":"inactive"}
{"Target gene":"IL6ST","reagent":4,"log2 vehicle/camptothecin viability":0.0818,"call":"inactive"}
{"Target gene":"KCNV2","reagent":1,"log2 vehicle/camptothecin viability":-0.539,"call":"inactive"}
{"Target gene":"KCNV2","reagent":2,"log2 vehicle/camptothecin viability":-1.96,"call":"inactive"}
{"Target gene":"KCNV2","reagent":3,"log2 vehicle/camptothecin viability":-0.877,"call":"inactive"}
{"Target gene":"IFNA13","reagent":1,"log2 vehicle/camptothecin viability":0.232,"call":"inactive"}
{"Target gene":"IFNA13","reagent":2,"log2 vehicle/camptothecin viability":-0.228,"call":"inactive"}

More entries follow:
Target gene,reagent,log2 vehicle/camptothecin viability,call
CCR2,1,-0.177,inactive
CCR2,2,-0.274,inactive
CCR2,3,-0.686,inactive
CCR2,4,-0.289,inactive
SNRPG,1,-0.369,inactive
SNRPG,2,-0.253,inactive
SNRPG,3,-0.671,inactive
CASP7,1,0.2,inactive
CASP7,2,0.0829,inactive
CASP7,3,-0.118,inactive
IL37,1,-0.343,inactive
IL37,2,0.364,inactive
IL37,3,-0.0407,inactive
IL37,4,0.0844,inactive
MEPCE,1,0.383,inactive
MEPCE,2,-0.101,inactive
MEPCE,3,-0.458,inactive
MEPCE,4,-0.266,inactive
SMARCA4,1,-0.0203,inactive
SMARCA4,2,0.102,inactive
SMARCA4,3,0.197,inactive
SMARCA4,4,0.453,inactive
HIF3A,1,-0.0694,inactive
HIF3A,2,0.477,inactive
HIF3A,3,-0.389,inactive
HIF3A,4,-0.25,inactive
